# Experimental data published in paper PMC7414866, “The Rnf complex is a Na^+ coupled respiratory enzyme in a fermenting bacterium, Thermotoga maritima” (Communications Biology, 2020).
# By UniProt entry, the sequences of proteins in these tests, tags left out. Where a name states a change or a piece, a line headed by the entry shows the natural chain unless it says otherwise.
# UniProt Q9WY90: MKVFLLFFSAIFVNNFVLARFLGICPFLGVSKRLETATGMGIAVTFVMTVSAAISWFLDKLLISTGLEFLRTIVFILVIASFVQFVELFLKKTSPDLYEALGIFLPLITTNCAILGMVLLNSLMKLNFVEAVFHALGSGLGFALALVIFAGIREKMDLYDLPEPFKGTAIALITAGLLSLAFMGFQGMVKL
# UniProt Q9WY89: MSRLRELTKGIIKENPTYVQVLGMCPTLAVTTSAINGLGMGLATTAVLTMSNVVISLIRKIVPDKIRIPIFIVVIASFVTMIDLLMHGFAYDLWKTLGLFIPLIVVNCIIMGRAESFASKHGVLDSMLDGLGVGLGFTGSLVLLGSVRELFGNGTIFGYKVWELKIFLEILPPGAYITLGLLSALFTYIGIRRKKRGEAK
# Biological target: T1, RnfC of Thermotoga maritima (Thermotoga maritima (endogenous in T. maritima DSM3109)) (UniProt Q9WY86)
# T1 sequence: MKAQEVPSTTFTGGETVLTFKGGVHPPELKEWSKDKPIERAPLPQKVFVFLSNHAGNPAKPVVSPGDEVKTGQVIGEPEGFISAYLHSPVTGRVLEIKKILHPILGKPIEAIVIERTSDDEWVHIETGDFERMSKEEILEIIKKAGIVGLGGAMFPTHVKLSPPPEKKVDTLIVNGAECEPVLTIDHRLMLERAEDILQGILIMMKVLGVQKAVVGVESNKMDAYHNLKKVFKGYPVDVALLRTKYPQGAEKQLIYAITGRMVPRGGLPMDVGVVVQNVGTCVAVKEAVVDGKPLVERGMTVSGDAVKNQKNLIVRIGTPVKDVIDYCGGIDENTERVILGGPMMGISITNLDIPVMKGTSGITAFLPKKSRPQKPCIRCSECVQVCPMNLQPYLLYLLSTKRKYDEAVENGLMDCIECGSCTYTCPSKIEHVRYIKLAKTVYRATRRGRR
# Assay: co-purification (PEG precipitation, sucrose gradient, anion exchange, hydroxyapatite, gel filtration); DDM solubilisate, PEG6000 7% then 12%, sucrose gradient 20-50%, Q-sepharose, hydroxyapatite, Sephacryl S300; subunits confirmed by MALDI-TOF and SDS-PAGE; no ATPase activity in the preparation
row,binding,Substance
1,binds,RnfA of Thermotoga maritima (from UniProt Q9WY90)
2,binds,RnfB of Thermotoga maritima
3,binds,RnfE of Thermotoga maritima (from UniProt Q9WY89)

# Results are given in words; binding and its absence hold for the method and conditions named. Binding seen in cells or lysates may run through a third protein. Binding calls can cover weak binding; strength is not graded here.
